Results taken from the supplement of paper PMC10849652.
This is one part of the list.

Chains of the proteins cited; added tags and fusions are not shown. Lines headed by an entry give the natural chain unless they say otherwise; changes in a name come on top.
UniProt Q8NEU8: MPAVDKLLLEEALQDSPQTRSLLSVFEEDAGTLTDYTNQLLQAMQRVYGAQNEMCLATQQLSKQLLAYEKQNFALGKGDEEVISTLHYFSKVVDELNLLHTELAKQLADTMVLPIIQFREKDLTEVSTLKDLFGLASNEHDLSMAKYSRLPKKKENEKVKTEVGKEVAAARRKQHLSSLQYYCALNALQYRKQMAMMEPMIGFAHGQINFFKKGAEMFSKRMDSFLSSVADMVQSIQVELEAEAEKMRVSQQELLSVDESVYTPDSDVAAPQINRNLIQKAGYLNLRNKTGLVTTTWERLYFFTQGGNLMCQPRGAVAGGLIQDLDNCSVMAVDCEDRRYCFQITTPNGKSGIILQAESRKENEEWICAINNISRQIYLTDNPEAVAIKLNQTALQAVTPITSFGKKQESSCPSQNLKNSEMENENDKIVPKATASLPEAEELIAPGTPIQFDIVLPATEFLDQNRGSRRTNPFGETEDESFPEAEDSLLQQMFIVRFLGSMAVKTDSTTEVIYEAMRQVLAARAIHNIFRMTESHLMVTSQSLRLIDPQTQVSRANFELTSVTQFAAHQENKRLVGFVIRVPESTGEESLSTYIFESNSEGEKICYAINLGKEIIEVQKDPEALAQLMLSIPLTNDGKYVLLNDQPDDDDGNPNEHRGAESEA
UniProt P49407: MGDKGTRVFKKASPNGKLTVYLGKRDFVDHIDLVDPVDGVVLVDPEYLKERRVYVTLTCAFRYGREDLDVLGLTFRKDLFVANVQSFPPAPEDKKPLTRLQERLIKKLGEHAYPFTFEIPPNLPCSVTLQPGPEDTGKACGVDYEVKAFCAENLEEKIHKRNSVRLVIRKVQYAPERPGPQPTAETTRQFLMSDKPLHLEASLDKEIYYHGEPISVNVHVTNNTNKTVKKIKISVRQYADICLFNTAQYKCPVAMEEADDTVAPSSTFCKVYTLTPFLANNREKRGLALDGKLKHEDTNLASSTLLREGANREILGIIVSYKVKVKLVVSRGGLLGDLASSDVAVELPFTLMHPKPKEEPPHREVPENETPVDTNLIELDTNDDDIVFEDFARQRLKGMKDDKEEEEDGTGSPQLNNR
UniProt Q9Y576: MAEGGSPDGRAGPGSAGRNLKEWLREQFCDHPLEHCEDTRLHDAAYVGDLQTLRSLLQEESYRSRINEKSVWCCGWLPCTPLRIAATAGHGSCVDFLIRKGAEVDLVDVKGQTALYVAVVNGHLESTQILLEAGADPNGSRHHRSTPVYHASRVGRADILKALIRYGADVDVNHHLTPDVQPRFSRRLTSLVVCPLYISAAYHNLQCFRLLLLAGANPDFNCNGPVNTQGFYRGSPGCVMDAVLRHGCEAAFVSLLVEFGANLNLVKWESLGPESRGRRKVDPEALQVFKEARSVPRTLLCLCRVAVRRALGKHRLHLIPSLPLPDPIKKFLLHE
UniProt O00192: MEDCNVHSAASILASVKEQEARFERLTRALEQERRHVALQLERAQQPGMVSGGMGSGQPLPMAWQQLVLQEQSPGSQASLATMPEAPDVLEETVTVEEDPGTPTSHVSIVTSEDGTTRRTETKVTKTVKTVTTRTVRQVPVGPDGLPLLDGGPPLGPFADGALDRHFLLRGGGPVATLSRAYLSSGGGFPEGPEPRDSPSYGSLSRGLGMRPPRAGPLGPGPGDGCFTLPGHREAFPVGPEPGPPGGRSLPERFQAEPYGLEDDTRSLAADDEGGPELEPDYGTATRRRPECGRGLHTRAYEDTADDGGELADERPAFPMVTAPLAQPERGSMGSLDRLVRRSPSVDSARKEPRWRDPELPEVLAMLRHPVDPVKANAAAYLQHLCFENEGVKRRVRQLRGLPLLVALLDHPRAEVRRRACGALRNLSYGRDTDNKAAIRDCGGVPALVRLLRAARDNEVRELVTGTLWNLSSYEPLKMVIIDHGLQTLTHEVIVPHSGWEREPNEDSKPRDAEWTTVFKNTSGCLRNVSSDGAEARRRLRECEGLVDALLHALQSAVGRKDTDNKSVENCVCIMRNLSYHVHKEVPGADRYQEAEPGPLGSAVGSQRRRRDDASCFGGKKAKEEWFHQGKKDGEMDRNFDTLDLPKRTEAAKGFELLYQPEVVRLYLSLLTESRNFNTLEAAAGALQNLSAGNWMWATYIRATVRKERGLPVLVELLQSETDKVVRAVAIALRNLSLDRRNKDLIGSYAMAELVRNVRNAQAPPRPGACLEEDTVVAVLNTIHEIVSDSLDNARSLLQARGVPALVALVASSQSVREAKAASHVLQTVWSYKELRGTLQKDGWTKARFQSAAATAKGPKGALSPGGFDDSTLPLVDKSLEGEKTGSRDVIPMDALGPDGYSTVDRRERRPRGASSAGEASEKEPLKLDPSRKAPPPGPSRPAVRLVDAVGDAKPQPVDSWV
UniProt Q66PJ3: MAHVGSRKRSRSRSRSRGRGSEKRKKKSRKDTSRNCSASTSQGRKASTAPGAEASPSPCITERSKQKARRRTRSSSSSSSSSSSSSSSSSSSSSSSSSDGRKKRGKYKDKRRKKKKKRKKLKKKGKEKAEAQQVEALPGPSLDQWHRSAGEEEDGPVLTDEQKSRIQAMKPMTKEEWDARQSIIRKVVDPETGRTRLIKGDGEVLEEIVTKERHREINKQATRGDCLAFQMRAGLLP
UniProt P05067, whole entry, looked up: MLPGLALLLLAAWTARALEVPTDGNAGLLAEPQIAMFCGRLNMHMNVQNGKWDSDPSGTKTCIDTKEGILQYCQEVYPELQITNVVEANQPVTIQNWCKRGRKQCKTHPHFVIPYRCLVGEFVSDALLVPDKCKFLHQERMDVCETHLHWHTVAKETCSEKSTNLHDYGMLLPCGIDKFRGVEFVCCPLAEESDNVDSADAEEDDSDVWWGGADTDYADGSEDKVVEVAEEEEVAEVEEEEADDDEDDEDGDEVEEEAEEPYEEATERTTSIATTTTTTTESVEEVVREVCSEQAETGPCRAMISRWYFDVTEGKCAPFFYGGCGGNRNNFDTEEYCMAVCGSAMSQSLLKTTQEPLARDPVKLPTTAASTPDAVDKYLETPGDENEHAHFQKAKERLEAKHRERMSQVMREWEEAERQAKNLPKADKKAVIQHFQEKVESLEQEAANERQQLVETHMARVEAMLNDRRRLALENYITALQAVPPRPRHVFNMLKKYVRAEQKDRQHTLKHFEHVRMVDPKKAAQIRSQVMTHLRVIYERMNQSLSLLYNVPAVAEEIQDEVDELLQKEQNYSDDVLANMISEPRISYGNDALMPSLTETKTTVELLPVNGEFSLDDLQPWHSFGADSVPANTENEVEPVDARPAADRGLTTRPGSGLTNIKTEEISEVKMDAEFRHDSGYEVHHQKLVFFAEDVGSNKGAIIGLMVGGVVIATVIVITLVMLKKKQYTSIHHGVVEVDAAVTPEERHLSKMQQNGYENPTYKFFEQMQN

Experiments:
Experiment in all cases: log2 fold change, soluble protein after heating vs DMSO (PISA); higher = thermal stabilisation; K562 lysate, 10 uM; active = over 0.2 and 3.5 SD of the protein, either way, in both replicates (recomputed)
ibrutinib = compound: C=CC(=O)N1CCC[C@@H](n2nc(-c3ccc(Oc4ccccc4)cc3)c3c(N)ncnc32)C1 [ibrutinib]
How it was run: (§1)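 A 30 min treatment with 10 μM compound was applied to crude K562 extract at 1 mg/mL protein in PBS pH 7.4 with 1 mM MgCl2. Heating for 3 min spanned 48°C-58°C, after which aliquots were pooled, adjusted to 0.5% NP-40 at 4°C and spun at 21,000xg for 90 min. TMTpro 16plex LC-MS/MS of the supernatant, with channel sums equalised, gave values recorded as log-two fold change in thermal stability against solvent controls, from duplicates.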

[1] = compound: CC(=O)c1cnc2ccc(-c3cc(Cl)c(O)c(Cl)c3)nc2c1N[C@H]1CC[C@H](CN(C)C)CC1
How it was run: as §1

ralimetinib = compound: CC(C)(C)Cn1c(N)nc2ccc(-c3[nH]c(C(C)(C)C)nc3-c3ccc(F)cc3)nc21 [ralimetinib]
How it was run: as §1

[2] = compound: CC(C)(O)CC(=O)NCCn1ccc2ncnc(Nc3ccc(Oc4cccc(C(F)(F)F)c4)c(Cl)c3)c21
How it was run: as §1

[3] = compound: CC(C)C1=C2N=C(C=C(N2N=C1)NCC3=CC=CC=C3)NCCCCCCN
How it was run: as §1

[4] = compound: CC1=C(C2=C(C=C1)C(=O)C3=CC=CC=C3N2CCCN)C
How it was run: as §1

[5] = compound: CC1=C(C=C(C=C1)NC(=O)C2=CC(=CC=C2)C(C)(C)C#N)NC3=CC4=C(C=C3)N=CN(C4=O)C
How it was run: as §1

[6] = compound: CC1=C(C=C(C=C1)NC(=O)C2=CC(=CC=C2)N(C)C)NC(=O)C3=CC=C(C=C3)O
How it was run: as §1

[7] = compound: CC1=CC=C(C=C1)SC2=C3C=C(SC3=CN=C2)C(=O)N
How it was run: as §1

vemurafenib = compound: CCCS(=O)(=O)Nc1ccc(F)c(C(=O)c2c[nH]c3ncc(-c4ccc(Cl)cc4)cc23)c1F [vemurafenib]
How it was run: as §1

[8] = compound: CCCS(=O)(=O)Nc1ccc(F)c(C(=O)c2c[nH]c3ncc(Cl)cc23)c1F
How it was run: as §1

barasertib = compound: CCN(CCCOc1ccc2c(Nc3cc(CC(=O)Nc4cccc(F)c4)[nH]n3)ncnc2c1)CCOP(=O)(O)O [barasertib]
How it was run: as §1

[9] = compound: CC[C@@H]1C(=O)N(C)c2cnc(Nc3ccc(C(=O)NC4CCN(C)CC4)cc3OC)nc2N1C1CCCC1
How it was run: as §1

volasertib = compound: CC[C@@H]1C(=O)N(C)c2cnc(Nc3ccc(C(=O)N[C@H]4CC[C@H](N5CCN(CC6CC6)CC5)CC4)cc3OC)nc2N1C(C)C [volasertib]
How it was run: as §1

[10] = compound: CCn1c(C(=O)N(C2CC2)C2CC2)cc2c3c(ncn3C)c(Nc3cc(C)n(C)n3)nc21
How it was run: as §1

[11] = compound: CCn1cc(-c2ccnc3[nH]c(-c4cccc(CN(C)C)c4)cc23)c(-c2ccc(NC(=O)N(C)C)cc2)n1
How it was run: as §1

[12] = compound: CN1CCC(CNc2ccc3ncc(-c4cccc(OC(F)(F)F)c4)n3n2)CC1
How it was run: as §1

saracatinib = compound: CN1CCN(CCOc2cc(OC3CCOCC3)c3c(Nc4c(Cl)ccc5c4OCO5)ncnc3c2)CC1 [saracatinib]
How it was run: as §1

sotrastaurin = compound: CN1CCN(c2nc(C3=C(c4c[nH]c5ccccc45)C(=O)NC3=O)c3ccccc3n2)CC1 [sotrastaurin]
How it was run: as §1

[13] = compound: CC1=C(C(CC(=O)N1)C2=CC=C(C=C2)C(F)(F)F)C(=O)NC3=C(C=C4C(=C3)C=NN4)F
How it was run: as §1

Measured: log2 fold change

APPL2 isoform 3 (UniProt Q8NEU8)
inactive: ibrutinib -0.016 | [1] 0.002 | ralimetinib -0.08 | [2] 0.029 | [3] 0.009 | [4] 0.012 | [5] -0.028 | [6] -0.027 | [7] 0.102 | vemurafenib 0.045 | [8] 0.043 | barasertib -0.015 | [9] 0.044 | volasertib -0.009 | [10] 0.258 | [11] 0.187 | [12] 0.146 | saracatinib 0.051 | sotrastaurin 0.032

ARRB1 isoform 2 (UniProt P49407)
inactive: ibrutinib 0.07 | [1] -0.036 | ralimetinib 0.075 | [2] -0.032 | [3] 0.051 | [13] -0.146 | [4] 0.043 | [5] 0.04 | [6] -0.007 | [7] 0.039 | vemurafenib 0.008 | [8] -0.01 | barasertib 0.064 | [9] -0.037 | volasertib 0.037 | [10] -0.007 | saracatinib -0.152 | sotrastaurin -0.198

ASB1 (UniProt Q9Y576)
inactive: ibrutinib -0.023 | ralimetinib 0.194 | [2] -0.096 | [13] 0.047 | [5] 0.012 | [6] 0.109 | vemurafenib 0.227 | barasertib -0.016 | [9] 0.002 | [10] 0.131 | [11] 0.216 | [12] -0.255 | sotrastaurin 0.08

ARVCF (UniProt O00192)
inactive: [1] -0.239 | ralimetinib -0.006 | [2] -0.079 | [3] -0.045 | [13] -0.072 | [4] 0.02 | [5] 0.023 | [6] 0.023 | [7] -0.266 | vemurafenib 0.021 | [8] 0.125 | [9] -0.038 | volasertib 0.101 | [10] -0.011 | [11] -0.025 | [12] 0.12 | saracatinib 0.053 | sotrastaurin 0.034

ARL6IP4 isoform 7 (UniProt Q66PJ3)
inactive: ibrutinib -0.271 | barasertib 0.047

APP (UniProt P05067)
inactive: ibrutinib 0.056 | [3] -0.072 | [13] 0 | [4] 0.059 | [5] -0.131 | barasertib -0.104 | [9] 0.054 | [11] 0.024 | [12] -0.03 | saracatinib 0 | sotrastaurin 0.016
